Experiment: Metabolomics of fetal brain at E14.5
Type: in vivo, C57Bl/6J mice
Conditions: E14.5 fetal brain metabolite level; for fold of change ABX/SPF: ANOVA contrast ABX vs SPF; for fold of change GF/ABX: ANOVA contrast GF vs ABX; for fold of change GF/SPF: ANOVA contrast GF vs SPF; for fold of change GF/Sp: ANOVA contrast GF vs Sp; for fold of change Sp/ABX: ANOVA contrast Sp vs ABX; for fold of change Sp/SPF: ANOVA contrast Sp vs SPF

SMILES: CCCCCCCCC=CCCCCCCCC(=O)OCC(O)COP(=O)([O-])OCC[N+](C)(C)C (stereo not drawn) [compound 2115]
- fold of change ABX/SPF: 0.61
- fold of change GF/ABX: 1.12
- fold of change GF/SPF: 0.68
- fold of change GF/Sp: 0.77
- fold of change Sp/ABX: 1.45
- fold of change Sp/SPF: 0.88

SMILES: CCCCCC=CCC=CCCCCCCCC(=O)OCC(O)COP(=O)([O-])OCC[N+](C)(C)C (stereo not drawn) [compound 2118]
- fold of change ABX/SPF: 0.85
- fold of change GF/ABX: 1.11
- fold of change GF/SPF: 0.94
- fold of change GF/Sp: 1.10
- fold of change Sp/ABX: 1.01
- fold of change Sp/SPF: 0.86

SMILES: CCCCCC=CCC=CCC=CCC=CCCCC(=O)OCC(O)COP(=O)([O-])OCC[N+](C)(C)C (stereo not drawn) [compound 2136]
- fold of change ABX/SPF: 0.75
- fold of change GF/ABX: 0.51
- fold of change GF/SPF: 0.39
- fold of change GF/Sp: 0.78
- fold of change Sp/ABX: 0.65
- fold of change Sp/SPF: 0.49

SMILES: CCCCCCCCCCCCCCCC(=O)OCC(O)COP(=O)(O)OCCN (stereo not drawn) [compound 2157]
- fold of change ABX/SPF: 0.61
- fold of change GF/ABX: 1.18
- fold of change GF/SPF: 0.72
- fold of change GF/Sp: 0.81
- fold of change Sp/ABX: 1.45
- fold of change Sp/SPF: 0.89

SMILES: CCCCCCCCCCCCCCCCCC(=O)OCC(O)COP(=O)(O)OCCN (stereo not drawn) [compound 2164]
- fold of change ABX/SPF: 0.70
- fold of change GF/ABX: 0.97
- fold of change GF/SPF: 0.68
- fold of change GF/Sp: 0.85
- fold of change Sp/ABX: 1.15
- fold of change Sp/SPF: 0.80

SMILES: CCCCCCCCCCCCCCCCCC(=O)OC(CO)COP(=O)(O)OCCN (stereo not drawn) [compound 2165]
- fold of change ABX/SPF: 0.91
- fold of change GF/ABX: 0.70
- fold of change GF/SPF: 0.64
- fold of change GF/Sp: 1.05
- fold of change Sp/ABX: 0.67
- fold of change Sp/SPF: 0.60

SMILES: CCCCCCCC/C=C\CCCCCCCC(=O)OCC(O)COP(=O)(O)OCCN (stereo not drawn) [compound 2166]
- fold of change ABX/SPF: 0.75
- fold of change GF/ABX: 1.11
- fold of change GF/SPF: 0.84
- fold of change GF/Sp: 0.87
- fold of change Sp/ABX: 1.27
- fold of change Sp/SPF: 0.96

SMILES: CCCCC/C=C\C/C=C\CCCCCCCC(=O)OCC(O)COP(=O)(O)OCCN (stereo not drawn) [compound 2168]
- fold of change ABX/SPF: 0.84
- fold of change GF/ABX: 1.18
- fold of change GF/SPF: 0.99
- fold of change GF/Sp: 1.09
- fold of change Sp/ABX: 1.08
- fold of change Sp/SPF: 0.91

SMILES: CCCCC/C=C\C/C=C\C/C=C\C/C=C\CCCC(=O)OCC(O)COP(=O)(O)OCCN (stereo not drawn) [compound 2179]
- fold of change ABX/SPF: 0.57
- fold of change GF/ABX: 1.60
- fold of change GF/SPF: 0.92
- fold of change GF/Sp: 1.04
- fold of change Sp/ABX: 1.53
- fold of change Sp/SPF: 0.88

SMILES: CCCCCCCCCCCCCCCC(=O)OCC(O)COP(=O)(O)OCC(N)C(=O)O (stereo not drawn) [compound 2192]
- fold of change ABX/SPF: 0.50
- fold of change GF/ABX: 1.38
- fold of change GF/SPF: 0.69
- fold of change GF/Sp: 0.95
- fold of change Sp/ABX: 1.46
- fold of change Sp/SPF: 0.73

SMILES: CCCCCCCCCCCCCCCCCC(=O)OCC(O)COP(=O)(O)OCC(N)C(=O)O (stereo not drawn) [compound 2193]
- fold of change ABX/SPF: 0.38
- fold of change GF/ABX: 1.87
- fold of change GF/SPF: 0.71
- fold of change GF/Sp: 0.88
- fold of change Sp/ABX: 2.12
- fold of change Sp/SPF: 0.81

SMILES: CCCCCCCC/C=C\CCCCCCCC(=O)OCC(O)COP(=O)(O)OCC(N)C(=O)O (stereo not drawn) [compound 2194]
- fold of change ABX/SPF: 0.76
- fold of change GF/ABX: 0.78
- fold of change GF/SPF: 0.59
- fold of change GF/Sp: 0.90
- fold of change Sp/ABX: 0.87
- fold of change Sp/SPF: 0.66

SMILES: CCCCCCCCCCCCCCCC(=O)OCC(O)COP(=O)(O)OCC(O)CO (stereo not drawn) [compound 2199]
- fold of change ABX/SPF: 0.82
- fold of change GF/ABX: 0.45
- fold of change GF/SPF: 0.37
- fold of change GF/Sp: 0.85
- fold of change Sp/ABX: 0.53
- fold of change Sp/SPF: 0.43

— patent US12491217B2, “Compositions and methods for promoting healthy neural development in an unborn baby” (The Regents of the University of California, priority 2019, dated 2025)
